# Results taken from PubChem BioAssay AID652054 (National Center for Advancing Translational Sciences (NCATS), 2013).
# Protein sequences, listed by entry. Tags and fused reporters are not part of them.
# UniProt P35462, whole entry, looked up: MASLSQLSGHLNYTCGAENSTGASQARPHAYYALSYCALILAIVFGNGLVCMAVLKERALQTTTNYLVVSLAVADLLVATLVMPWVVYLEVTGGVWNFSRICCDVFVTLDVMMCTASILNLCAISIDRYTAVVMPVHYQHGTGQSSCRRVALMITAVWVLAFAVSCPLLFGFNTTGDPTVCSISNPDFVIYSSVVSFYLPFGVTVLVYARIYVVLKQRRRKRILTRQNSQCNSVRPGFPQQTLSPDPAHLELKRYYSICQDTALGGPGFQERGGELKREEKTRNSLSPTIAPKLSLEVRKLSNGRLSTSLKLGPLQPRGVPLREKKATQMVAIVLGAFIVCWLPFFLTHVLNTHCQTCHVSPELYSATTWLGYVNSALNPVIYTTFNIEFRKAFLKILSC
# Where “and” joins values, the source holds several entries; their conditions need not be identical. Equal values may be shown once. The whole screen tested about 360,000 compounds, of which about 9,100 (2.5%) were called active. Inconclusive results, whose numbers are uncertain, are shown with a selection of clear calls. Rule as the data show it: active = max response below about -50%; inconclusive = no clear call, values can overlap the other calls; inactive = above that.
# Target: D(3) dopamine receptor (Homo sapiens) (UniProt P35462)
# Assay: qHTS of D3 Dopamine Receptor Antagonist: qHTS
# Details: D3R cells, DiscoveRx beta-arrestin luminescence, antagonist mode; stronger effect = lower value
# Procedure, shortened: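 Cells expressing the human receptor were seeded at 1500 cells/well, incubated overnight at 37 degrees C in 5% CO2, then exposed to library compounds with dopamine controls for 90 minutes at 37 degrees C before luminescent detection.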
# % is scaled to controls: 0 for no effect and ±100 for the full control effect.
row,Compound,"max response, negative = inhibition"
1,O=C(Cc1ccc(Cl)cc1)NC(=S)Nc1ccccc1N1CCOCC1,inactive: 0%
2,COc1ccccc1NC(c1cccnc1)c1ccc2cccnc2c1O (stereo not drawn),inconclusive: -36.8%
3,Cn1cc([N+](=O)[O-])c(C(=O)Nc2ccc(-c3nc4ccccc4[nH]3)cc2)n1,inconclusive: -36%
4,CC(C)CCn1c(O)c(N=Nc2ccccn2)c2ccccc21,inactive: 12.4%
5,O=S(=O)(Oc1ccccc1-c1ccccc1)c1ccccc1,inconclusive: -45.1%
6,CC1CCOC2(O1)C(=O)N(CN1CCN(c3ccccc3F)CC1)c1ccccc12 (stereo not drawn),active: -53.7%
7,CCOC(=O)C(C(=O)OCC)c1cc(Br)c2noc3c2c1C(=O)c1ccccc1-3,active: -102%
8,O=C1/C(=C/c2cccs2)COc2ccccc21,inconclusive: -33.3%
9,CCN1CCN(C(=O)NC(c2ccc(C)c(F)c2)C(Cl)Cl)CC1 (stereo not drawn),inconclusive: -35.3%
10,Cc1ccc2nc(NC(=S)NC(=O)c3ccco3)sc2c1,inactive: -13.1%
11,Cn1c(=O)c2c(ncn2CC(=O)OCC(=O)c2ccc(OC(F)F)cc2OC(F)F)n(C)c1=O,inactive: 0%
12,CCOC(=O)C(C)Sc1snnc1C (stereo not drawn),inactive: -9.91%
13,CCN1CCN(c2nc(Nc3cccc(F)c3)nc(N)c2[N+](=O)[O-])CC1,active: -76.5%
14,CSCC[C@H](NC(=O)C1=NN(c2c(F)c(F)cc(F)c2F)C(=O)CC1)c1nc2ccccc2[nH]1,inactive: -2.98%
15,O=C(O)c1ccc(N2C(=O)c3cccc4c(C(=O)O)ccc(c34)C2=O)cc1,inconclusive: -41.7%
16,Cc1ccccc1Cc1c(C)nc2c(C(=O)N3CCN(Cc4ccc5c(c4)OCO5)CC3)cnn2c1C,active: -60.4%
17,O=C(Oc1ccccc1F)C1CCN(C(=O)c2ccc(F)cc2)CC1,inconclusive: -37.8%
18,CCOc1cc(C(=O)NC)cc(OCC)c1OCC,inconclusive: -30.4%
19,C=CCN1C(=O)NC(c2ccc(OC)cc2)(C(F)(F)F)S/C1=C(\C#N)c1nnc(N2CCOCC2)n1-c1ccccc1 (stereo not drawn),inconclusive: -41.6%
20,COc1ccc(C(=O)/C=C/Nc2ccc(S(=O)(=O)Nc3cccc(C(C)=O)c3)cc2)cc1,inactive: 20.4%
21,CC(C)(C)CNC(=O)C1(C)CCN1C(=O)Cc1ccc(C(C)(C)C)cc1 (stereo not drawn),inconclusive: -40.2%
22,Nc1n[nH]c(=S)n1-c1ccc(Cl)cc1,inactive: -11.6%

# Some values from the list.
# For max response, negative = inhibition, `O=C(O)c1ccc(N2C(=O)c3cccc4c(C(=O)O)ccc(c34)C2=O)cc1` has inconclusive: -41.7%
# For max response, negative = inhibition, `CCOC(=O)C(C)Sc1snnc1C` (stereo not drawn) has inactive: -9.91%

# Remaining list, next part.

row,Compound,"max response, negative = inhibition"
1,Cc1c(C)n(Cc2ccc(F)cc2)c2ccc(C(=O)NCCCN3CCOCC3)cc12,inconclusive: -36.1%
2,CCOc1ccc2c(O)csc2c1,inconclusive: -35.9%
3,CC(C)N(Cc1c(O)ccc2c(=O)c(-c3ccc(Cl)cc3)coc12)C(C)C,inconclusive: -35.9%
4,COc1ccccc1NS(=O)(=O)c1cc(NC(=O)C2CCC2)ccc1N1CCCCC1,inconclusive: -37.5%
5,C/C(=N\NC(=O)c1ccccc1F)c1ccccn1,inconclusive: -37%
6,Cc1ccccc1-c1nc(S(=O)(=O)c2ccc(Cl)cc2)c(NCCN2CCOCC2)o1,inconclusive: -30.1%
7,CC(C)CN1Cc2ccccc2Oc2cc(Br)ccc2S1(=O)=O,active: -62.1%
8,Cc1ccc(S(=O)(=O)NCC(=O)OCC(=O)Nc2cccc(S(=O)(=O)N3CCOCC3)c2)cc1,inconclusive: -30.5%
9,CCc1cccc(NC(=O)c2sc3nc4n(c(=O)c3c2C)CCC4)c1,inactive: -5.16%
10,O=C1CCCN1CC(CN1CCOCC1)Sc1nnnn1-c1ccccc1 (stereo not drawn),inconclusive: -33.1%
11,CCCc1cc(=O)oc2c(CNc3ccc(OCC)cc3)c(O)ccc12,inconclusive: -43.5%
12,O=C1C(Cc2ccccc2)Nc2ncnc(N3CCOCC3)c2N1Cc1ccc(Cl)cc1 (stereo not drawn),active: -102% and inconclusive: -30.9%
13,CC1CCCCN1C(=O)CSc1nnc(-c2ccccc2O)o1 (stereo not drawn),inactive: 5.02%
14,Cc1cc(C)n(CC(O)COc2ccc(Cl)cc2)n1 (stereo not drawn),inactive: -19.6%
15,CCOC(=O)/C(=C\c1ccc(OC(F)F)cc1)C1=Nn2c(nnc2-c2ccc(Cl)cc2)SC1,active: -90.1%
16,Cc1ccc(C(=O)NNC(=O)CSc2n[nH]c(-c3cccnc3)n2)cc1,inconclusive: -37.4%
17,CC(C)(C)OC(=O)NCC1CCC(C(=O)NC[C@H](CC(=O)O)c2ccc(Cl)cc2)CC1 (stereo partly drawn),inconclusive: -40%
18,CCOc1ccc(Nc2ccc(S(=O)(=O)N3CCN(C)CC3)cc2[N+](=O)[O-])cc1OCC,inactive: -12.8%
19,Cn1nc([N+](=O)[O-])c(C(C#N)c2ccccn2)c(Cl)c1=O (stereo not drawn),inconclusive: -33.6%
20,Nc1ccc(C2CCCc3nonc32)c2nonc12 (stereo not drawn),active: -62.5%
21,c1ccc(N2CCN(Cc3cn4ccccc4n3)CC2)cc1,inconclusive: -46.9%
